# Measurements as given in paper PMC12595034.
# The chains behind the UniProt entries cited, without tags or fusion partners. Where a name states a change or a piece, a line headed by the entry shows the natural chain unless it says otherwise.
# UniProt F4IWJ9: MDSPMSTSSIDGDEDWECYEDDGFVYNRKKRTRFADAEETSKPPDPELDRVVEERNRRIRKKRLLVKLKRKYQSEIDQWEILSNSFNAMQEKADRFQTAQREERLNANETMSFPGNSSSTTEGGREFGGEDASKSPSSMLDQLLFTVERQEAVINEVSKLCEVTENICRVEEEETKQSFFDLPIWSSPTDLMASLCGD
# UniProt F4JHD1: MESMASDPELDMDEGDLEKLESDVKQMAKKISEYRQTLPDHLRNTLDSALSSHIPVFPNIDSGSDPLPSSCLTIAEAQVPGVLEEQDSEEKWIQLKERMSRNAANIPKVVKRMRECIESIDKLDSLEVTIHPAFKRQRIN
# UniProt F4J2K4: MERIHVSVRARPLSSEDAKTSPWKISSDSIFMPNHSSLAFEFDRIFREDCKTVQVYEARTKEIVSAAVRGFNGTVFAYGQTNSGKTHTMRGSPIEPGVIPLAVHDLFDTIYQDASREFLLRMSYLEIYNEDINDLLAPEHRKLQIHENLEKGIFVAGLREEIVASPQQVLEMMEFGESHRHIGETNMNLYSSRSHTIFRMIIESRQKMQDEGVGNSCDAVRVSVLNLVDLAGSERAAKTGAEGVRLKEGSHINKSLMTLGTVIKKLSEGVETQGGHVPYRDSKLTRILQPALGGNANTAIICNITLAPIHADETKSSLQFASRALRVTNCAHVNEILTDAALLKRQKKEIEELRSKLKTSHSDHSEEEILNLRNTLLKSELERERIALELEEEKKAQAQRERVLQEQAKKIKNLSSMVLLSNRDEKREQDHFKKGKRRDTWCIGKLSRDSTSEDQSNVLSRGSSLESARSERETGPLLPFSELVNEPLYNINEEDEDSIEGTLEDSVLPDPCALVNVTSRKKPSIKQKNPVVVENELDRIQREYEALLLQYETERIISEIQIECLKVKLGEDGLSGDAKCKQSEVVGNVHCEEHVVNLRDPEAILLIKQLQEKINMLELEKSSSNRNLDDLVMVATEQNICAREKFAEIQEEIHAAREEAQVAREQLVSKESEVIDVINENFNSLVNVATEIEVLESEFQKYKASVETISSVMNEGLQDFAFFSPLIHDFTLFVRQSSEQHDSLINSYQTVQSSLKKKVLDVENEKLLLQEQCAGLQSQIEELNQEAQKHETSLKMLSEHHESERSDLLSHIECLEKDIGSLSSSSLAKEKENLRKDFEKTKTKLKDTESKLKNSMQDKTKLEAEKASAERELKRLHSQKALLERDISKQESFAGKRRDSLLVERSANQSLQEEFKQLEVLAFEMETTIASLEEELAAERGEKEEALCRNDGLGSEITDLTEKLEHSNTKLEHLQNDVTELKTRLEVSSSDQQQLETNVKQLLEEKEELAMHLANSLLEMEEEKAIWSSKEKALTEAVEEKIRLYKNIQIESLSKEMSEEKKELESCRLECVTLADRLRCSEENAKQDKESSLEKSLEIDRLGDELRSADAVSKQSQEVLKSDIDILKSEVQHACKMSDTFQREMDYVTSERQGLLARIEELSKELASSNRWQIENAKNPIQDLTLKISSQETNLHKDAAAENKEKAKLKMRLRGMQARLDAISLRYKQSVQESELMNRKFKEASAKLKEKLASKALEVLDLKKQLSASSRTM
# UniProt A0A1P8AM80: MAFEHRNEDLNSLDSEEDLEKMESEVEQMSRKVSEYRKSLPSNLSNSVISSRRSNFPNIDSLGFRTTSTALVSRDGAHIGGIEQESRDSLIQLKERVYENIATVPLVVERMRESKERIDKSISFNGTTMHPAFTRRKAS
# UniProt Q9M1J8: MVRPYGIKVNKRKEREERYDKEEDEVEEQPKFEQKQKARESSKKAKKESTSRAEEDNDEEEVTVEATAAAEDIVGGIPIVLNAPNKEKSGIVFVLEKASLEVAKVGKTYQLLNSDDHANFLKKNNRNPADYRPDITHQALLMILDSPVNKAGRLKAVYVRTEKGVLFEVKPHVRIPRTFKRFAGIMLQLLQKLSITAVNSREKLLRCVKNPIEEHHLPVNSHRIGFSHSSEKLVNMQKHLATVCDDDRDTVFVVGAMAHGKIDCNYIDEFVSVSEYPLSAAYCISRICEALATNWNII
# UniProt F4HR01: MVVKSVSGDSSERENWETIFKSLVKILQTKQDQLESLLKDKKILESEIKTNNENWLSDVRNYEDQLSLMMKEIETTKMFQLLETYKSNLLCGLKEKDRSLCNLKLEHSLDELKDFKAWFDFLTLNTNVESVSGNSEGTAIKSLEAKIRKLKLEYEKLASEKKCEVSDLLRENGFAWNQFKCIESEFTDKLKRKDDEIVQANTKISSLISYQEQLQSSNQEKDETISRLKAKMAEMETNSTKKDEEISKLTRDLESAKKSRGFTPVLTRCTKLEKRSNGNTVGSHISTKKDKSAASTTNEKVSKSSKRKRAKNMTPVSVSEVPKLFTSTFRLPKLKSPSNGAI
# These are yes or no findings as the source states them, for the method shown. Binding seen in cells or lysates may run through a third protein. These calls come from enrichment with a bait or labelling near it, and not all partners need be listed.
# B1: AtECA2/PICALM5a (protein, UniProt Q9SA65 1-599)
# chain: MGSSKFKRAIGAVKDQTSVGLAKVNGRSASLSELDVAIVKATRHEEFPAEEKYIREILSLTSYSRSYINACVSTLSRRLNKTKCWTVALKTLILIQRLLGEGDQAYEQEIFFATRRGTRLLNMSDFRDVSRSNSWDYSAFVRTYALYLDERLDFRMQARHGKRGVYCVGGEADEEEQDQAAADLSTAIVVRSQPIAEMKTEQIFIRIQHLQQLLDRFLACRPTGNARNNRVVIVALYPIVKESFQIYYDVTEIMGILIERFMELDIPDSIKVYDIFCRVSKQFEELDQFYSWCKNMGIARSSEYPEIEKITQKKLDLMDEFIRDKSALEHTKQSKSVKSEADEDDDEARTEEVNEEQEDMNAIKALPEPPPKEEDDVKPEEEAKEEVIIEKKQEEMGDLLDLGNTNGGEAGQAGDSLALALFDGPYASGSGSESGPGWEAFKDDSADWETALVQTATNLSGQKSELGGGFDMLLLNGMYQHGAVNAAVKTSTAYGASGSASSMAFGSAGRPAATMLALPAPSTANGNAGNINSPVPMDPFAASLEVAPPAYVQMNDMEKKQRMLMEEQMMWDQYSRDGRQGHMNLRQNQNQPYSYTPQY
# B2: MUN/SPC24 (protein, UniProt Q67XT3 1-201)
# chain: MGNASENFDIEDLMSYGDDLINLLNVKNGFDIISQSSEQFKALNFACHEDFNQIQGSIEDCKTKLYACKKKTEEAYSDIAAEDEIERLQKELDEEMEREFKLKDELRLVADELKDLNAQLSSIDEHKQSTKRKVRDDLRAEKKLSMYASVTNVIPDIDDPSKISGYMVDREKRLIEKFQFETNKMTAYETCNSIWSIINKQ
# B3: NDC80 (protein, UniProt Q9M1G5 1-568)
# chain: MRGGAAGKRRTTVGFGGAPPPPPPSIEQQRHLFNSRDSDASFASSRPSSIGLGGRGASDDRSSMIRFINAFLSTHNFPISIRGNPVPSVKDISETLKFLLSALDYPCDSIKWDEDLVFFLKSQKCPFKITKSSLKAPNTPHNWPTVLAVVHWLAELARFHQHLVSNSTSVPEDNSMNFFAIQSFGHFIRGEDDKVNDLDSQFLGKLEAEKTSVAETISGCEKISGELEAKLESLRKGPSKKESLEKVKADLENDVNKFRTIVVEYTDRNPAMEKVVEEKAKELKAKEEERERISVENKELKKSVELQNFSAADVNRMRRELQAVERDVADAEVARDGWDQKAWELNSQIRNQFHQIQTLAIDCNQALRRLKLDIQFAVNERGETPAAVMGVDYKSVVKPALCSLCDGIKGSSAEKVEELVTLQHHKSEMASKIESKRSLLGSIQLQINDLEEKMKLVKKETQELSTKCDLEAKTLVESVKAEALNLEVVEKEAAEFVKASELRLQEAVKESEEEVQACAAQLFALIDSISKQKEYMDSKISEIKTGVADTASAVSEIYKANFKKNLGI
# B4: SPC25 (protein, UniProt Q93VK9 1-315)
# chain: MEQISNIAGGDTTKETMASLGLICEKDIHEQRLKIDSFIASPFRRSMNSLVERAQATAQSQVELMNLKADLREAEDELVKVLAVKTRKEARQMGIRDSISATQSRIEVLRRNLQLQKSKKDDSVRIISQQLQALSKSKDNAGKVTEDKADIHEAISWYNHALGFHVEAGHGVKFTFTNIDAKRPTREFSFTVHYGNDIYTLLDSDLQLDYINEMVQELNKTNDLFRFVRLMREQFLKSTLSELPTHSGQLQQETSAISASAPAISFSTDTNMSTPENKRSKVQVNRRQKRGSESPLLAPVSTSATRRSSRFKGKK
# B5: MIS12 (protein, UniProt Q2V0Z5 1-238)
# chain: MEGSKSEAVFDSMNLNPQIFINEAINSVEDYVDQAFDFYARDASKSLKIKGSDKQKSQALSNGIARVRGLLLSVIDNRLKLWESYSLRFCFAVPDGFVLPKSEESSSVHQDGLYDLELDAELDSLRDKLNVVGKRSVELDSELQALERSSVSRERSLRLVNEALELYDESSMDEIFKEMTKMASELRASVERLKTRRMKASESAKVKRLKNHGKEFSAMTFDGKLEDLEKFQAELRKM
# B6: NUF2 (protein, UniProt Q8RXJ0 1-440)
# chain: MSAYEYPRLSRSDIITALKDAQIASVTETDLKTPTSDFVSELYTRILIYLDALDEEEKGQVDFEALEQLENPDHHATSMQAMKLYCKVKDMLEMLDCPLPISFKDLLRPESSRTEFFISALLNYGLYKDSKMDLIRPKAEELGLLDEQRKQCEAKVAQLNAEIGEFDEAVERDLPFVQELEANIEQLNKKILELNNQQMSLRATFQKMREKSTQMDNEISKAEFDLVETVQENANLRSQIVQSPDKLQGALEEKKLVLGETKKAEQSAMVTFQEKAAILEVFEKALKKILKSSSQLQLINEQVTNAKTVEKEFKALKDKLSEDGVAYKSLEAKVVERERIVEQLNESLKQLEKEKAVMFDDWTKQLNELKVEVESRRRELETRQTNVESVVAMVDDNTAKTNQVRQSGEAKVKKLAAKYEEIVKQFHEYTVSFDAFLPSL
# B7: BUB1MAD3/BMF1 (protein, UniProt F4IVI0 1-525)
# chain: MTIGYRDAAGDPLFPWLMEIKNSMEDLYAGKNSGYDLDKLLFDCISTYKKDSRYRNDLRFLKIWFLYLEGREDFERVYREIEETEICKGHSLLYEWYAIFLEVKGLWRRANSVYQTGLSRKAEPFDRLKEAHSLFLQRISKRTKASSLEKVGDDAQATDLETGFVNPWETSTVNGLIHKIKPQLVKYDGYHVSNKVFPGKANLSSLQNYSRNKIIEIGGRKYQMKGCAGQGGFAQVFKAFIDSNPDEVVALKVQKPPFPWEFHMYRQLDCRIPDSQRSSFGLAQRVHVYSDYSILVCDYLSHGTLQDVINSYVVVGKSMEEVLCMYYTIEMLNMLETLHSVGIIHGDFKPDNLLIRYPPENLTETGFHEKTGSWSKKGLCLVDWGRGIDLSLFPRTTEFTGDCRTSGFRCVEMKEDKPWKFQVDTYGLCVIVHMMLHNVYMEIEKKQSLDGGYINMPRTSFKRYWKVDLWKELFTKLLNRETCEDDTETLRNLRKSMEEYICSDPKLMKKLNELLAKQRISLCSS
# B8: CENPC (protein, UniProt Q66LG9 1-705)
# chain: MADVSRSSSLYTEEDPLQAYSGLSLFPRTLKSLSNPLPPSYQSEDLQQTHTLLQSMPFEIQSEHQEQAKAILEDVDVDVQLNPIPNKRERRPGLDRKRKSFSLHLTTSQPPPVAPSFDPSKYPRSEDFFAAYDKFELANREWQKQTGSSVIDIQENPPSRRPRRPGIPGRKRRPFKESFTDSYFTDVINLEASEKEIPIASEQSLESATAAHVTTVDREVDDSTVDTDKDLNNVLKDLLACSREELEGDGAIKLLEERLQIKSFNIEKFSIPEFQDVRKMNLKASGSNPPNRKSLSDIQNILKGTNRVAVRKNSHSPSPQTIKHFSSPNPPVDQFSFPDIHNLLPGDQQPSEVNVQPIAKDIPNTSPTNVGTVDVASPFNDSVVKRSGEDDSHIHSGIHRSHLSRDGNPDICVMDSISNRSSAMLQKNVDMRTKGKEVDVPMSESGANRNTGDRENDAEINEETDNLERLAECASKEVTRPFTVEEDSIPYQQGASSKSPNRAPEQYNTMGGSLEHAEHNQGLHEEENVNTGSASGLQVENAPEVHKYSHKQTNKRRKRGSSDSNVKKRSKTVHGETGGDKQMKTLPHESRAKKQTKGKSNEREEKKPKKTLTHEGKLFSCRKSLAAAGTKIEGGVRRSTRIKSRPLEYWRGERFLYGRIHESLTTVIGIKYASPGEGKRDSRASKVKSFVSDEYKKLVDFAALH
# B9: BUB3.3 (protein, UniProt F4I241 1-314)
# chain: MSGDRLEFENPIEDAVSRLRFSPQSNNLLVASWDSYLRLYDVESSSLSLELNSQAALLDCCFENESTSFTSGSDGFIRRYDLNAGTVDTIGRHDDISTSIVYSYEKGEVISTGFDEKIKFWDTRQRESLVFSTDAGGAVGCVTVSGNNLVVCVDASMHIYDLRNLDEAFQSYASQVEVPIRCITSVPYSRGYAVGSVDGRVAVDFPNTSCSSEIKYSFRCHPKSRNGRLDGVCINAIEFSPCGSGTFVTGDNEGYVISWNAKSRRRLNELPRYSNSIASLAFDHTGELLAIASSHTYQDAKEKEEAPQVFIHRL
# B10: UGE5 (protein, UniProt Q9SN58 1-351)
# chain: MMARNVLVSGGAGYIGSHTVLQLLLGGYSVVVVDNLDNSSAVSLQRVKKLAAEHGERLSFHQVDLRDRSALEKIFSETKFDAVIHFAGLKAVGESVEKPLLYYNNNLVGTITLLEVMAQHGCKNLVFSSSATVYGSPKEVPCTEEFPISALNPYGRTKLFIEEICRDVYGSDPEWKIILLRYFNPVGAHPSGDIGEDPRGIPNNLMPFVQQVAVGRRPHLTVFGNDYNTKDGTGVRDYIHVIDLADGHIAALRKLEDCKIGCEVYNLGTGNGTSVLEMVDAFEKASGKKIPLVIAGRRPGDAEVVYASTERAESELNWKAKYGIEEMCRDLWNWASNNPYGYDSSSEDNSH
# B11: Mitochondrial ATPase (protein, UniProt P93303 1-158)
# chain: MPQLDKFTYFSQFFWLCLFFFTFYIFICNDGDGVLGISRILKLRNQLLSHRGKTIRSKDPNSLEDLLRKGFSTGVSYMYASLFEVSQWCKAVDLLGKRRKITLISCFGEISGSRGMERNILYNISKSSPSNTGRWITCRNCRNDIMLIHVVHGQGSIK
# How the values were obtained:
# Experiment in all cases: affinity purification with mass spectrometry; GSrhino-tagged bait expressed in Arabidopsis cell suspension culture; pull-down in triplicate for each bait, on-bead digest, Q Exactive; hits filtered by NSAF against a large control AP-MS dataset of non-related baits
# [1] = target: NGSrhino-DSN1 (Arabidopsis thaliana) (UniProt F4IWJ9)
# [2] = target: DSN1-CGSrhino (Arabidopsis thaliana) (UniProt F4IWJ9)
# [3] = target: CSM1-CGSrhino (Arabidopsis thaliana)
# [4] = target: NGSrhino-KNL1 (Arabidopsis thaliana)
# [5] = target: NGSrhino-CSM1 (Arabidopsis thaliana)
molecule,measurement,setting,value
NSL1.1 (from UniProt F4JHD1),binding,[1],binds
same,binding,[2],binds
CENP-E (from UniProt F4J2K4),binding,[1],binds
same,binding,[2],binds
NSL1.2 (from UniProt A0A1P8AM80),binding,[1],binds
same,binding,[2],binds
AT3G57000 (from UniProt Q9M1J8),binding,[1],binds
AT1G19980 (from UniProt F4HR01),binding,[1],binds
same,binding,[2],binds
B1,binding,[1],binds
same,binding,[2],binds
B2,binding,[3],binds
same,binding,[4],binds
same,binding,[5],binds
B3,binding,[1],binds
same,binding,[3],binds
same,binding,[2],binds
same,binding,[4],binds
same,binding,[5],binds
B4,binding,[3],binds
same,binding,[4],binds
same,binding,[5],binds
B5,binding,[1],binds
same,binding,[3],binds
same,binding,[2],binds
same,binding,[4],binds
same,binding,[5],binds
B6,binding,[1],binds
same,binding,[3],binds
same,binding,[2],binds
same,binding,[4],binds
same,binding,[5],binds
B7,binding,[1],binds
same,binding,[3],binds
same,binding,[2],binds
same,binding,[4],binds
same,binding,[5],binds
B8,binding,[3],binds
same,binding,[4],binds
same,binding,[5],binds
B9,binding,[1],binds
same,binding,[2],binds
same,binding,[4],binds
B10,binding,[1],binds
B11,binding,[3],binds
